Measurements reported in article PMC4764564.
Results are given in words; binding and its absence hold for the method and conditions named. In cells and extracts the contact can be indirect. Some binding calls cover weakened binding; strength is not graded here.

By UniProt entry, the sequences of proteins in these tests, tags left out. Residues count along the entry.
UniProt P58390, residues 266-839: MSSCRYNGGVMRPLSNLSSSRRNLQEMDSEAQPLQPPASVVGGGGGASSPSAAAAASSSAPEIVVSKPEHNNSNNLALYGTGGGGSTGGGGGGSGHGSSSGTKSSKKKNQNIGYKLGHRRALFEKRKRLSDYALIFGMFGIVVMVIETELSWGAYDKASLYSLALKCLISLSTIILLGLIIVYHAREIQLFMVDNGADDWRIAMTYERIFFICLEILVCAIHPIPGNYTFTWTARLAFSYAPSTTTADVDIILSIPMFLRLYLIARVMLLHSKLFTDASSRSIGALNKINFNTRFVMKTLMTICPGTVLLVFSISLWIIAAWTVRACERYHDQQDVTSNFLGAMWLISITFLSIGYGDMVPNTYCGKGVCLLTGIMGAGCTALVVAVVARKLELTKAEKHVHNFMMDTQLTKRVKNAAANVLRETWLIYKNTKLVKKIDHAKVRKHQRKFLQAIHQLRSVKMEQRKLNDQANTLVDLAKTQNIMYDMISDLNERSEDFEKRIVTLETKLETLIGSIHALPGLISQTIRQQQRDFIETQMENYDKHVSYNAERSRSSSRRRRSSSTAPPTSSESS
UniProt P19490, residues 19-907: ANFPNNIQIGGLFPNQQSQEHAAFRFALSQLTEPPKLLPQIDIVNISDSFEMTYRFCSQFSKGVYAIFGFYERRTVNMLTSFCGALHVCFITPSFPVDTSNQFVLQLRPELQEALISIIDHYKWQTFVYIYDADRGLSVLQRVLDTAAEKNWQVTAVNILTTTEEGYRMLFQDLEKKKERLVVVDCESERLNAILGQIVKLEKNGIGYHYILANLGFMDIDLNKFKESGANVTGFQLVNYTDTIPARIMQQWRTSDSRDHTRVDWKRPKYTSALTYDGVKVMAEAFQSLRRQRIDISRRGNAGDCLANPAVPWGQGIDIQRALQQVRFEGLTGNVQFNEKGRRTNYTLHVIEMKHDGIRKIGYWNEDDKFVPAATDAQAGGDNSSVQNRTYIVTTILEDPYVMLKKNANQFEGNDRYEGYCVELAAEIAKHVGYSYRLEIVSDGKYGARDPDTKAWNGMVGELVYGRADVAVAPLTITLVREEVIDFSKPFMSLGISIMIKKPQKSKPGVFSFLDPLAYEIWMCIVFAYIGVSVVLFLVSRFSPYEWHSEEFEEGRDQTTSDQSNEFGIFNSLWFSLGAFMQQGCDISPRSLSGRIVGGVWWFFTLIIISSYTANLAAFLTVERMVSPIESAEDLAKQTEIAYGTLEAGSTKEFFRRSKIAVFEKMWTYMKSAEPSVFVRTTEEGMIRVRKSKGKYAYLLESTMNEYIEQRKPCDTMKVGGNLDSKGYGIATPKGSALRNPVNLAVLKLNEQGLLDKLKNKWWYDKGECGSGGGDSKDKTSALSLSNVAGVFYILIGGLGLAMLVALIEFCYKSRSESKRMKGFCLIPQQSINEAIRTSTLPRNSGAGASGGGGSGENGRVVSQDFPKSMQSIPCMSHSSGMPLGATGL
UniProt Q811D0: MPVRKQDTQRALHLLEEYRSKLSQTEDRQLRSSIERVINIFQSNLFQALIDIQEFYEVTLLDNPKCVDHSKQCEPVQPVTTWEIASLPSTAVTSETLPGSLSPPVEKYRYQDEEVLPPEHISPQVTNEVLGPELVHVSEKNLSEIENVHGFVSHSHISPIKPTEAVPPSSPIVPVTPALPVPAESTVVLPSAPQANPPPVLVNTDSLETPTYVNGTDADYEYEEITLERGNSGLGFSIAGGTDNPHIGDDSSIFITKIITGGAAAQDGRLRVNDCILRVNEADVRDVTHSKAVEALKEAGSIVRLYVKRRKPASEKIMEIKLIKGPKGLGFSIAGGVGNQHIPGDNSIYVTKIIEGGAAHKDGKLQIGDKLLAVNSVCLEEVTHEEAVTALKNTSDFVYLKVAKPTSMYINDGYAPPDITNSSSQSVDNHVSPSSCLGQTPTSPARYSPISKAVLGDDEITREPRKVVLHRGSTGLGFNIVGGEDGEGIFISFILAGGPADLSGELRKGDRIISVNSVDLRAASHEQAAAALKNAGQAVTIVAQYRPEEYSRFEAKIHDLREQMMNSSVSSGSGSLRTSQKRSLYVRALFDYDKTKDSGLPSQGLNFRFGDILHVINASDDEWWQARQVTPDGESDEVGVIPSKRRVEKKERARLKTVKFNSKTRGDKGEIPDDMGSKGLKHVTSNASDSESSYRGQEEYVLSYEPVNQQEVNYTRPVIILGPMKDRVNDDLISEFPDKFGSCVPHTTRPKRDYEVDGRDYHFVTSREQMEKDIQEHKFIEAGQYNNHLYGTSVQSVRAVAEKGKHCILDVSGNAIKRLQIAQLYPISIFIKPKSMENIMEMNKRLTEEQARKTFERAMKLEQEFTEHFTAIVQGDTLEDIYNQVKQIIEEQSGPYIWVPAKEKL

Legend:
myc-SK2-S = myc-SK2-S (UniProt P58390); assay: co-IP; HEK293 cells co-transfected; lysis in 20 mM HEPES pH 7.5, 150 mM NaCl, 10% glycerol, 2 mM EDTA, 1% beta-D-dodecyl maltoside; anti-SK2 (guinea pig), anti-GluA1 or control IgG with protein A/G agarose overnight at 4°C; Western blot
GluA1 = GluA1 (UniProt P19490); assay: as above

C8-SAP97 (from UniProt Q811D0 1-905)
binding (myc-SK2-S): no binding | binding (GluA1): binds
